In PMC6269755, “In Vitro Antiprotozoal Activity of Triterpenoid Constituents of Kleinia odora Growing in Saudi Arabia” (Molecules, 2013):

Assay: Cytotoxicity against MRC-5 cells, resazurin
Format: cell-based
Conditions: human, MRC-5 SV2 fibroblast cells, pure compounds
Procedure: The integrated panel of microbial screens and standard screening methodologies were adopted as previously described. All assays were performed in triplicate at the Laboratory of Microbiology, Parasitology and Hygiene at the University of Antwerp (Belgium). […] Selectivity of activity was assessed by simultaneous evaluation of cytotoxicity on a fibroblast (MRC-5) cell line.
MRC-5 SV2 cells were cultivated in MEM, supplemented with L-glutamine (20 mM), 16.5 mM sodium hydrogen carbonate and 5% FCS. For the assay, 10^4 MRC-5 cells/well were seeded onto the test plates containing the pre-diluted sample and incubated at 37 °C and 5% CO2 for 72 h. Cell viability was assessed fluorimetrically after 4 h of addition of resazurin. Fluorescence was measured (excitation 550 nm, emission 590 nm) and the results were expressed as % reduction in cell viability compared to control.

Which IC50 at 72 h does the source give for `CC/C(=C(\c1ccccc1)c1ccc(OCCN(C)C)cc1)c1ccccc1` [Tamoxifen, reference compound] here?
The IC50 at 72 h was 11.4 ± 3.2 µM.
